In the supplement of paper PMC10849652:
This is one part of the list.

Protein sequences, listed by entry. Tags and fused reporters are not part of them. Lines headed by an entry give the natural chain unless they say otherwise; changes in a name come on top.
UniProt P56181: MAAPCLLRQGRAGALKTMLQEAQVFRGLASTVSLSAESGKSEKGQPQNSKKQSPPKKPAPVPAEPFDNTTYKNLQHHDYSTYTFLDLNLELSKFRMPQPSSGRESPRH
UniProt P54802: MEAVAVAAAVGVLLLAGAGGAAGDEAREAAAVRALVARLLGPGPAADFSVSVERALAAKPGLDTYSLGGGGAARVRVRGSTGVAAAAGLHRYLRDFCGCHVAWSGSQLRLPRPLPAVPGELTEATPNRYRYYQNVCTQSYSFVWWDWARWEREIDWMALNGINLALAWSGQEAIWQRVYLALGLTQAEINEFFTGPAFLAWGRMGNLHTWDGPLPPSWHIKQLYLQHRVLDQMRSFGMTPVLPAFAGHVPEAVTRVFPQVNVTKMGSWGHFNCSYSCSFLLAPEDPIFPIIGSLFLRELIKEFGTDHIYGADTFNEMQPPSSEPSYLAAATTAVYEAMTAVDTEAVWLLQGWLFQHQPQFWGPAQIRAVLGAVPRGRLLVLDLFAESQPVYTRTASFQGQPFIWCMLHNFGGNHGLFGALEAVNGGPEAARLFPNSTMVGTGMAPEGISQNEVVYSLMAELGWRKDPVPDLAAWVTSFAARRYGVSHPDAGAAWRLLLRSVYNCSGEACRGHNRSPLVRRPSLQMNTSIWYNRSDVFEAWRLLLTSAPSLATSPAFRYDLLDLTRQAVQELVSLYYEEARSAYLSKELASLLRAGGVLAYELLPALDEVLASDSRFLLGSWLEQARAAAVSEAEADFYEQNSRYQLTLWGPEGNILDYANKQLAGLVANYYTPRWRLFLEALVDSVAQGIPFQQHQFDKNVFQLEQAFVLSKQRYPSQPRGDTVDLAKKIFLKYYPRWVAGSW
UniProt O95139, whole entry, looked up: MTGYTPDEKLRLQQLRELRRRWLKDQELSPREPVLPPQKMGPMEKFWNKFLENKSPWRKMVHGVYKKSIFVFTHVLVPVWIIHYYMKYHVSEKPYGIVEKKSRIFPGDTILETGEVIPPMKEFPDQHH
UniProt P12036: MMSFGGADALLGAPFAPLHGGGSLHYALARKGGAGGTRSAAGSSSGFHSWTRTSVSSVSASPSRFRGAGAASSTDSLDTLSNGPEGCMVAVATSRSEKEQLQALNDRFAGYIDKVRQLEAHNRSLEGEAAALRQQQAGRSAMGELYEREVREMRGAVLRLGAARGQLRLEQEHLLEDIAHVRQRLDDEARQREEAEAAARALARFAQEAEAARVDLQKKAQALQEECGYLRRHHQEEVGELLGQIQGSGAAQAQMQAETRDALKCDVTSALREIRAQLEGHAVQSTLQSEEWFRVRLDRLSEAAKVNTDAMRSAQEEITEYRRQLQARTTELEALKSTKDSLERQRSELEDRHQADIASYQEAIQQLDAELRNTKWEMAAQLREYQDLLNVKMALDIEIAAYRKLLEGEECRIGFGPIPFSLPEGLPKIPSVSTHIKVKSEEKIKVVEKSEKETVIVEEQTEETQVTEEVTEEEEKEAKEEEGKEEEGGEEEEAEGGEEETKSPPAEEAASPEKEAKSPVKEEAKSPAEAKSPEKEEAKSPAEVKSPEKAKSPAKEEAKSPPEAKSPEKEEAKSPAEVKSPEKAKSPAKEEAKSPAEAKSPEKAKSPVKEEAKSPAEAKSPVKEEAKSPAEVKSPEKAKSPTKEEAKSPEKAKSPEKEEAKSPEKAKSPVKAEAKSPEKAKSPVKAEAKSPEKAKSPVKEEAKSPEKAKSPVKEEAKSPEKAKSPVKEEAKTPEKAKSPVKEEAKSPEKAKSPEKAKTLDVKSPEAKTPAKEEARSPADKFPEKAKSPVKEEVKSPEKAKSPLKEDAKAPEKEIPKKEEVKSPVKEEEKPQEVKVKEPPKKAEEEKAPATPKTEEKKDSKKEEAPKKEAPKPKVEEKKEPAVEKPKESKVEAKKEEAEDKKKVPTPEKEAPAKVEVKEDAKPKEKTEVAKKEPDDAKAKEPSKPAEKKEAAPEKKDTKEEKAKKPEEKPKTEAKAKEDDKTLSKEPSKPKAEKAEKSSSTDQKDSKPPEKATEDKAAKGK
UniProt Q9UN36: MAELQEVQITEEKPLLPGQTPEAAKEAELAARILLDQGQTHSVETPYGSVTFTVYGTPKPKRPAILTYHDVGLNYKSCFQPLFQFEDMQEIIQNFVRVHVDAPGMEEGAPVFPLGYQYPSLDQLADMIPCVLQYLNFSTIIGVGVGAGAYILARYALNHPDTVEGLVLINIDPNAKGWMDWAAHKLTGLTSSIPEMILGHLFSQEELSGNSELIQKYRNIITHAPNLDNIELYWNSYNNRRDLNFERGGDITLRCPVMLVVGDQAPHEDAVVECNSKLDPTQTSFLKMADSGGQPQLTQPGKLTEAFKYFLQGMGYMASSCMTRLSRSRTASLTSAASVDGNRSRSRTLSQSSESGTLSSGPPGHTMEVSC
UniProt Q8NCW5: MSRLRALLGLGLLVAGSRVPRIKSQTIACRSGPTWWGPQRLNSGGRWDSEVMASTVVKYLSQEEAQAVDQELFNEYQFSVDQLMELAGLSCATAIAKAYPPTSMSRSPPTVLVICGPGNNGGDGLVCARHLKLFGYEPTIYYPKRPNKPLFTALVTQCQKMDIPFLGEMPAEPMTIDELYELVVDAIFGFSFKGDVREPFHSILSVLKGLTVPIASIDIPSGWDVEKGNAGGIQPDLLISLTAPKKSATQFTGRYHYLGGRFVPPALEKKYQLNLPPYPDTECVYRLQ
UniProt Q9UGV2: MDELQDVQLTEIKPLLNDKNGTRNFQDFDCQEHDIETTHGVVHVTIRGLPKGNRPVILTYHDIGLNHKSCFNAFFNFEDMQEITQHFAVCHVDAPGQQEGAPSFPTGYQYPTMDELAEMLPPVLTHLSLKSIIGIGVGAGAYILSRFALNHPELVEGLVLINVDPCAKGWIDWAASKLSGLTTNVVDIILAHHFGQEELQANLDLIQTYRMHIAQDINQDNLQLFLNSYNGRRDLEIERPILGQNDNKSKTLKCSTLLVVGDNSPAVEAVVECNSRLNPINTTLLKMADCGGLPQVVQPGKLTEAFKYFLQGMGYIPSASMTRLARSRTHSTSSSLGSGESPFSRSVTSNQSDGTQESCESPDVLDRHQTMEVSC
UniProt Q09161: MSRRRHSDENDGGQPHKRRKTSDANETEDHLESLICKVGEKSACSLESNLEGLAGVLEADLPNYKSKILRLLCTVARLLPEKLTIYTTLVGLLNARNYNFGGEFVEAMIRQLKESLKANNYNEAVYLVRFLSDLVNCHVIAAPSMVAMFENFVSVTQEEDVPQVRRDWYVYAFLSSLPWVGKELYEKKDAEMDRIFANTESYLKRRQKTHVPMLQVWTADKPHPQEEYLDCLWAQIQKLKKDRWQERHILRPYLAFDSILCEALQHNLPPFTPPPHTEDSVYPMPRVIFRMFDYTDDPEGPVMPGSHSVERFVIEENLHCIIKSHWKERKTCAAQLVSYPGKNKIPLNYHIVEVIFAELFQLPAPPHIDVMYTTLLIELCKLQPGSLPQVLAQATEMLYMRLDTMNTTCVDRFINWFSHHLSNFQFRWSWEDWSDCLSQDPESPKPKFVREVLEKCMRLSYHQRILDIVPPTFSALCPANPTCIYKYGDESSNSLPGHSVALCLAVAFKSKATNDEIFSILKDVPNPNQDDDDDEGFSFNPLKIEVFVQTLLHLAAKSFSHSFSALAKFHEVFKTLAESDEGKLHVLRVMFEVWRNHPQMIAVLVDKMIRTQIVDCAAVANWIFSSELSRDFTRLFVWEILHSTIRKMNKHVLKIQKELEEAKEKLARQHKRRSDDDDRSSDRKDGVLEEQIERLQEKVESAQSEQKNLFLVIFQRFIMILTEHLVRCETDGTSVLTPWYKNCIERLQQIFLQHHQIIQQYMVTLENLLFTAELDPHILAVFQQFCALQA
UniProt O76041: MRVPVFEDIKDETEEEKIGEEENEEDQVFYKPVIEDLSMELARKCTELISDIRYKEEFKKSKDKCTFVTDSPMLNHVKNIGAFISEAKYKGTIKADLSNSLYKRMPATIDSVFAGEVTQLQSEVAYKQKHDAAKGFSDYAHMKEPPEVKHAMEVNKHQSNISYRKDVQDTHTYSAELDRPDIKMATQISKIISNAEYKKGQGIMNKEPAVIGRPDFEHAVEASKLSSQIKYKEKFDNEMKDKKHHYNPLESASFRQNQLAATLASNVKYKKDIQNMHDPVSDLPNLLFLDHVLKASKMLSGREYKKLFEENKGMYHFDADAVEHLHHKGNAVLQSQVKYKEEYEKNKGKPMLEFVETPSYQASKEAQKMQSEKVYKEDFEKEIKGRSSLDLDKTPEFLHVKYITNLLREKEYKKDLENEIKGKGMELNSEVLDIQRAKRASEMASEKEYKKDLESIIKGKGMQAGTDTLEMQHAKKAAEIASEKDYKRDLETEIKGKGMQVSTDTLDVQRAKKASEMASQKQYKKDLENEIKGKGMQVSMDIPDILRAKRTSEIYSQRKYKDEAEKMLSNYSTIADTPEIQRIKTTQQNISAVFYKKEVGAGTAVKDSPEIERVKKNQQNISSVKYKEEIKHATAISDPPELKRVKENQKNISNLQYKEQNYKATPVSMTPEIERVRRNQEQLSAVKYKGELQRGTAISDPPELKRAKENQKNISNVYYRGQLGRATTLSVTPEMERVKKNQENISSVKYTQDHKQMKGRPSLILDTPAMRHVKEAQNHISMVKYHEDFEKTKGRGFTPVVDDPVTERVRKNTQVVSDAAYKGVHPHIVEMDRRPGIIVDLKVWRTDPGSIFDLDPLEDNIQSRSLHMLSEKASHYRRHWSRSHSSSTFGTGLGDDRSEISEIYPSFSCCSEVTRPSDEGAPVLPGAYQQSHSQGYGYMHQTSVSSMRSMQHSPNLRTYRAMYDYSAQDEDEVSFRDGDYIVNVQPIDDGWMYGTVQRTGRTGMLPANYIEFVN
UniProt Q5VZE5: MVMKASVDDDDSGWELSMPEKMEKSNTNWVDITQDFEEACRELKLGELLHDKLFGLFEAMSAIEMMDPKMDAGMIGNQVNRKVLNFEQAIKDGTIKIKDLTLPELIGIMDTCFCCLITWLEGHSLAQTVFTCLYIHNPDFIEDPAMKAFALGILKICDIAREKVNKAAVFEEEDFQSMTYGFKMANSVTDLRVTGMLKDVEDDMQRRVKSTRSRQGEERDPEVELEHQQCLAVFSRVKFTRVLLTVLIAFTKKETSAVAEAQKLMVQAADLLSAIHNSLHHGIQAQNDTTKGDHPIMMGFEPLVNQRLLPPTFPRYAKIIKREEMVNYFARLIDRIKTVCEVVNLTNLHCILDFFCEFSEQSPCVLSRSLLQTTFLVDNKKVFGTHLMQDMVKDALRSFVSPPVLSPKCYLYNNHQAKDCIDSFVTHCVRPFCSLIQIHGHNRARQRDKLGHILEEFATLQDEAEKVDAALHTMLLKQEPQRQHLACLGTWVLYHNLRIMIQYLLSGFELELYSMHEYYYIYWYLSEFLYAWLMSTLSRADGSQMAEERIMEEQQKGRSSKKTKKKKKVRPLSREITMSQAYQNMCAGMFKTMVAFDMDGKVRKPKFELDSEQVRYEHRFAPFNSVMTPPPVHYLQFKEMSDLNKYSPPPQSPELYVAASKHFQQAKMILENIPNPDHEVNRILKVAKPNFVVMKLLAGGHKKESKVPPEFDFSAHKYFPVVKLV
UniProt Q9Y375: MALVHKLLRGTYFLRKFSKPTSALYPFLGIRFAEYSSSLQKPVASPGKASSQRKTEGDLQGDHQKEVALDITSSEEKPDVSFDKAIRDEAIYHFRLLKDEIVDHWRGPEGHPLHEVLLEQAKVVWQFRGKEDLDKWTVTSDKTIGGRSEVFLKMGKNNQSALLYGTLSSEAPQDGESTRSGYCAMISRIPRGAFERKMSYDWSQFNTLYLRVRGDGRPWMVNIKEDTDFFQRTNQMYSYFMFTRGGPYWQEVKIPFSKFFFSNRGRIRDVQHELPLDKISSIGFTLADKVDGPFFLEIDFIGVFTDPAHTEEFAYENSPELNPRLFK
UniProt O95298, whole entry, looked up: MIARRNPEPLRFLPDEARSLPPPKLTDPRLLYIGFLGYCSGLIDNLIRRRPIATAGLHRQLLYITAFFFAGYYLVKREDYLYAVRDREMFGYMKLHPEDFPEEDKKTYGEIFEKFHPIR
UniProt P49821, whole entry, looked up: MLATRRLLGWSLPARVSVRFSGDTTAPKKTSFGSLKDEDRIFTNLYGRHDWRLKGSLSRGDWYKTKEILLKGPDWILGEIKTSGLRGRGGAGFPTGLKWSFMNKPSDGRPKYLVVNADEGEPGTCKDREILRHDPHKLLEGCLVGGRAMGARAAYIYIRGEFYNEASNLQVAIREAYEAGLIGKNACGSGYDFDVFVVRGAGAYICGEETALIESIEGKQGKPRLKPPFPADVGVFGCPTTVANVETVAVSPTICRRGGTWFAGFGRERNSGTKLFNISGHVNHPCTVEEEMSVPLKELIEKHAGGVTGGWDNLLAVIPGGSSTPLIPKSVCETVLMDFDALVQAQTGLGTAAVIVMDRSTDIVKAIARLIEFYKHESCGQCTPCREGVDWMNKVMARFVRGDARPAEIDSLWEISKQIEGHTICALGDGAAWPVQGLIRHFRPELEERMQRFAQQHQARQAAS

How the values were obtained:
Test in all cases: log2 fold change, soluble protein after heating vs DMSO (PISA); higher = thermal stabilisation; K562 cells, 10 uM, 30 min; active = over 0.2 and 3.5 SD of the protein, either way, in both replicates (recomputed)
saracatinib = compound: CN1CCN(CCOc2cc(OC3CCOCC3)c3c(Nc4c(Cl)ccc5c4OCO5)ncnc3c2)CC1 [saracatinib]
Procedure, shortened: (§1)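 K562 cells (2×10^6 cells/mL) were treated with 10 μM compound for 30 min, and aliquots were heated for 3 min over 48°C-58°C. Pooled aliquots were extracted in PBS with 0.5% NP-40 at 4°C, and the supernatant after 21,000xg for 90 min was measured by TMTpro 16plex LC-MS/MS with channel sums equalised. Reported thermal stability, relative to control samples and from duplicates, is a log2 fold change.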

sotrastaurin = compound: CN1CCN(c2nc(C3=C(c4c[nH]c5ccccc45)C(=O)NC3=O)c3ccccc3n2)CC1 [sotrastaurin]
Procedure, shortened: as §1

alvocidib = compound: CN1CC[C@H](c2c(O)cc(O)c3c(=O)cc(-c4ccccc4Cl)oc23)[C@H](O)C1 [alvocidib]
Procedure, shortened: as §1

Tubastatin A = compound: CN1CCc2c(c3ccccc3n2Cc2ccc(C(=O)NO)cc2)C1 [Tubastatin A]
Procedure, shortened: as §1

[1] = compound: CNC(=O)C1=CC=CC=C1NC2=NC(=NC=C2Cl)NC3=C(C=C(C=C3)N4CCOCC4)OC
Procedure, shortened: as §1

defactinib = compound: CNC(=O)c1ccc(Nc2ncc(C(F)(F)F)c(NCc3nccnc3N(C)S(C)(=O)=O)n2)cc1 [defactinib]
Procedure, shortened: as §1

rucaparib = compound: CNCc1ccc(-c2[nH]c3cc(F)cc4c3c2CCNC4=O)cc1 [rucaparib]
Procedure, shortened: as §1

[2] = compound: CNc1nc(-c2ccc3c(N)n[nH]c3c2)cc(N2C[C@@H](C(=O)NC3CCCCC3)CC[C@H]2C)n1
Procedure, shortened: as §1

encorafenib = compound: COC(=O)N[C@@H](C)CNc1nccc(-c2cn(C(C)C)nc2-c2cc(Cl)cc(NS(C)(=O)=O)c2F)n1 [encorafenib]
Procedure, shortened: as §1

[3] = compound: COC(=O)[C@H](CCSC)NC(=O)C1=C(C=C(C=C1)NC[C@H](CS)N)C2=CC=CC=C2
Procedure, shortened: as §1

[4] = compound: COC1=CC=C(C=C1)CN2C=CC3=C2C=C(C=C3)C(=O)NO
Procedure, shortened: as §1

filanesib = compound: CON(C)C(=O)N1N=C(c2cc(F)ccc2F)S[C@@]1(CCCN)c1ccccc1 [filanesib]
Procedure, shortened: as §1

zotarolimus = compound: CO[C@H]1C[C@@H]2CC[C@@H](C)[C@@](O)(O2)C(=O)C(=O)N2CCCC[C@H]2C(=O)O[C@H]([C@H](C)C[C@@H]2CC[C@H](n3cnnn3)[C@H](OC)C2)CC(=O)[C@H](C)/C=C(\C)[C@@H](O)[C@@H](OC)C(=O)[C@H](C)C[C@H](C)/C=C/C=C/C=C/1C [zotarolimus]
Procedure, shortened: as §1

idasanutlin = compound: COc1cc(C(=O)O)ccc1NC(=O)[C@@H]1N[C@@H](CC(C)(C)C)[C@](C#N)(c2ccc(Cl)cc2F)[C@H]1c1cccc(Cl)c1F [idasanutlin]
Procedure, shortened: as §1

alisertib = compound: COc1cc(Nc2ncc3c(n2)-c2ccc(Cl)cc2C(c2c(F)cccc2OC)=NC3)ccc1C(=O)O [alisertib]
Procedure, shortened: as §1

[5] = compound: COc1cc2nc(-c3cc(F)ccc3O)nc(N[C@@H]3CNC[C@H]3C(C)(C)O)c2cc1OC
Procedure, shortened: as §1

gefitinib = compound: COc1cc2ncnc(Nc3ccc(F)c(Cl)c3)c2cc1OCCCN1CCOCC1 [gefitinib]
Procedure, shortened: as §1

[6] = compound: COc1cccc2cc(-c3nc([C@H]4CC[C@H](C(=O)O)CC4)n4ncnc(N)c34)[nH]c12
Procedure, shortened: as §1

lapatinib = compound: CS(=O)(=O)CCNCc1ccc(-c2ccc3ncnc(Nc4ccc(OCc5cccc(F)c5)c(Cl)c4)c3c2)o1 [lapatinib]
Procedure, shortened: as §1

pictilisib = compound: CS(=O)(=O)N1CCN(Cc2cc3nc(-c4cccc5[nH]ncc45)nc(N4CCOCC4)c3s2)CC1 [pictilisib]
Procedure, shortened: as §1

Measured: log2 fold change

NDUFV3 isoform 2 (UniProt P56181)
inactive: saracatinib 0.009 | sotrastaurin 0.07 | alvocidib 0.018 | Tubastatin A -0.059 | [1] -0.002 | defactinib -0.017 | rucaparib 0.009 | [2] -0.088 | encorafenib -0.066 | [3] 0.059 | [4] -0.117 | filanesib 0.042 | zotarolimus -0.03 | idasanutlin 0.063 | alisertib -0.048 | [5] -0.014 | gefitinib -0.017 | [6] 0.044 | lapatinib 0 | pictilisib 0

NDUFV3 (UniProt P56181)
inactive: saracatinib -0.255 | sotrastaurin 0.035 | alvocidib -0.122 | Tubastatin A 0.012 | [1] 0.147 | defactinib 0.024 | rucaparib -0.062 | [2] -0.102 | encorafenib -0.008 | [3] -0.035 | [4] 0.087 | filanesib -0.073 | zotarolimus -0.094 | idasanutlin -0.04 | alisertib -0.008 | [5] 0.017 | gefitinib -0.012 | [6] -0.003 | lapatinib 0

NAGLU (UniProt P54802)
inactive: saracatinib -0.061 | sotrastaurin 0.011 | alvocidib 0.012 | Tubastatin A 0.096 | [1] -0.041 | defactinib 0.008 | rucaparib -0.023 | [2] 0.12 | encorafenib -0.064 | [3] -0.009 | [4] 0.052 | filanesib 0.004 | zotarolimus 0.046 | idasanutlin 0.018 | alisertib 0.072 | [5] -0.052 | gefitinib 0.04 | [6] 0.066 | lapatinib 0.017 | pictilisib 0.068

NDUFB6 (UniProt O95139)
inactive: saracatinib -0.008 | sotrastaurin 0.025 | alvocidib 0.007 | Tubastatin A -0.016 | [1] 0.004 | defactinib 0.034 | rucaparib -0.022 | [2] -0.051 | encorafenib -0.006 | [3] 0.084 | [4] -0.046 | filanesib -0.056 | zotarolimus -0.029 | idasanutlin 0 | alisertib 0.026 | [5] -0.128 | gefitinib -0.018 | [6] 0.092 | lapatinib -0.099 | pictilisib 0.04

NEFH (UniProt P12036)
inactive: saracatinib -0.11 | sotrastaurin -0.209 | alvocidib 0.105 | Tubastatin A -0.027 | [1] 0 | defactinib 0.113 | rucaparib 0.031 | [2] -0.094 | encorafenib 0.189 | [3] 0.033 | [4] -0.092 | filanesib 0.305 | zotarolimus 0.066 | idasanutlin 0.236 | alisertib -0.378 | [5] -0.18 | gefitinib -0.055 | [6] -0.4 | lapatinib 0.086 | pictilisib -0.067

Reprinted from the listing (4 entries):
NDUFV3 (UniProt P56181)
inactive: saracatinib -0.255 | sotrastaurin 0.035 | alvocidib -0.122 | Tubastatin A 0.012 | [1] 0.147 | defactinib 0.024 | rucaparib -0.062 | [2] -0.102 | encorafenib -0.008 | [3] -0.035 | [4] 0.087 | filanesib -0.073 | zotarolimus -0.094 | idasanutlin -0.04 | alisertib -0.008 | [5] 0.017 | gefitinib -0.012 | [6] -0.003 | lapatinib 0

NAGLU (UniProt P54802)
inactive: saracatinib -0.061 | sotrastaurin 0.011 | alvocidib 0.012 | Tubastatin A 0.096 | [1] -0.041 | defactinib 0.008 | rucaparib -0.023 | [2] 0.12 | encorafenib -0.064 | [3] -0.009 | [4] 0.052 | filanesib 0.004 | zotarolimus 0.046 | idasanutlin 0.018 | alisertib 0.072 | [5] -0.052 | gefitinib 0.04 | [6] 0.066 | lapatinib 0.017 | pictilisib 0.068

NDUFB6 (UniProt O95139)
inactive: saracatinib -0.008 | sotrastaurin 0.025 | alvocidib 0.007 | Tubastatin A -0.016 | [1] 0.004 | defactinib 0.034 | rucaparib -0.022 | [2] -0.051 | encorafenib -0.006 | [3] 0.084 | [4] -0.046 | filanesib -0.056 | zotarolimus -0.029 | idasanutlin 0 | alisertib 0.026 | [5] -0.128 | gefitinib -0.018 | [6] 0.092 | lapatinib -0.099 | pictilisib 0.04

NEFH (UniProt P12036)
inactive: saracatinib -0.11 | sotrastaurin -0.209 | alvocidib 0.105 | Tubastatin A -0.027 | [1] 0 | defactinib 0.113 | rucaparib 0.031 | [2] -0.094 | encorafenib 0.189 | [3] 0.033 | [4] -0.092 | filanesib 0.305 | zotarolimus 0.066 | idasanutlin 0.236 | alisertib -0.378 | [5] -0.18 | gefitinib -0.055 | [6] -0.4 | lapatinib 0.086 | pictilisib -0.067

The list continues:

NCEH1 isoform 2 (UniProt Q6PIU2)
inactive: saracatinib 0.063 | sotrastaurin 0.097 | alvocidib -0.013 | Tubastatin A -0.005 | [1] 0.018 | defactinib -0.019 | rucaparib -0.098 | [2] -0.046 | encorafenib -0.004 | [3] 0.007 | [4] -0.042 | filanesib -0.025 | zotarolimus -0.024 | idasanutlin -0.058 | alisertib -0.055 | [5] -0.024 | gefitinib -0.002 | [6] 0.05 | lapatinib -0.024 | pictilisib -0.014

NACA (UniProt E9PAV3)
inactive: saracatinib 0.077 | sotrastaurin -0.004 | alvocidib 0.086 | Tubastatin A -0.003 | [1] -0.033 | defactinib -0.001 | rucaparib 0.003 | [2] -0.014 | encorafenib -0.006 | [3] 0.056 | [4] 0.019 | filanesib -0.01 | zotarolimus -0.081 | idasanutlin 0.046 | alisertib -0.056 | [5] -0.035 | gefitinib -0.018 | [6] 0.075 | lapatinib 0.016 | pictilisib 0.017

NDRG2 (UniProt Q9UN36)
inactive: saracatinib 0.012 | sotrastaurin -0.027 | alvocidib -0.035 | Tubastatin A -0.008 | [1] -0.015 | defactinib -0.088 | rucaparib -0.093 | [2] 0.005 | encorafenib 0.013 | [3] 0.04 | [4] 0.044 | filanesib -0.014 | zotarolimus 0.028 | idasanutlin -0.023 | alisertib -0.011 | [5] 0.007 | gefitinib 0.006 | [6] 0.026 | lapatinib -0.02 | pictilisib 0.002

NAXE (UniProt Q8NCW5)
inactive: saracatinib 0.012 | sotrastaurin 0.009 | alvocidib -0.007 | Tubastatin A -0.025 | [1] -0.021 | defactinib 0.015 | rucaparib -0.007 | [2] -0.007 | encorafenib -0.028 | [3] -0.018 | [4] 0.047 | filanesib -0.027 | zotarolimus 0.057 | idasanutlin -0.038 | alisertib -0.028 | [5] 0.017 | gefitinib 0.003 | [6] 0.041 | lapatinib -0.015 | pictilisib 0.026

NDRG3 (UniProt Q9UGV2)
inactive: saracatinib 0.042 | sotrastaurin -0.059 | alvocidib -0.005 | Tubastatin A 0.001 | [1] 0.054 | defactinib -0.027 | rucaparib -0.161 | [2] 0.015 | encorafenib 0.032 | [3] 0.059 | [4] -0.006 | filanesib -0.08 | zotarolimus 0.065 | idasanutlin 0.033 | alisertib -0.094 | [5] -0.054 | gefitinib 0.001 | [6] 0.044 | lapatinib -0.003 | pictilisib 0.082

NCBP1 (UniProt Q09161)
inactive: saracatinib 0.036 | sotrastaurin 0.012 | alvocidib 0 | Tubastatin A -0.027 | [1] -0.013 | defactinib -0.007 | rucaparib 0.006 | [2] -0.013 | encorafenib -0.009 | [3] -0.01 | [4] 0.021 | filanesib 0.003 | zotarolimus -0.016 | idasanutlin -0.096 | alisertib -0.062 | [5] 0.062 | gefitinib -0.018 | [6] 0.029 | lapatinib 0.024 | pictilisib 0.19

NEBL (UniProt O76041)
inactive: saracatinib 0.136 | sotrastaurin 0.022 | alvocidib 0.058 | Tubastatin A 0.094 | [1] 0.024 | defactinib -0.013 | rucaparib -0.053 | [2] 0.015 | encorafenib -0.024 | [3] 0.182 | [4] -0.005 | filanesib 0 | zotarolimus 0.16 | idasanutlin 0.061 | alisertib -0.062 | [5] 0.039 | gefitinib -0.019 | [6] 0.059 | lapatinib 0.013

NAA35 (UniProt Q5VZE5)
inactive: saracatinib 0.029 | sotrastaurin 0.014 | alvocidib -0.083 | Tubastatin A 0.025 | [1] -0.01 | defactinib -0.071 | rucaparib -0.025 | [2] -0.002 | encorafenib 0.042 | [3] 0.013 | [4] -0.036 | filanesib -0.063 | zotarolimus 0.016 | idasanutlin -0.021 | alisertib 0.079 | [5] 0.026 | gefitinib 0.002 | [6] -0.033 | lapatinib -0.005 | pictilisib -0.001

NDUFAF1 (UniProt Q9Y375)
inactive: saracatinib 0.086 | sotrastaurin 0.036 | alvocidib -0.032 | Tubastatin A -0.008 | [1] -0.015 | defactinib -0.02 | rucaparib -0.028 | [2] -0.014 | encorafenib 0.025 | [3] 0.046 | [4] 0.025 | filanesib -0.028 | zotarolimus -0.061 | idasanutlin -0.061 | alisertib -0.027 | [5] -0.013 | gefitinib -0.022 | [6] 0.034 | lapatinib -0.009 | pictilisib -0.022

NDUFC2 (UniProt O95298)
inactive: saracatinib 0.046 | sotrastaurin -0.019 | alvocidib 0.038 | Tubastatin A -0.073 | [1] 0.04 | defactinib 0.015 | rucaparib -0.142 | [2] -0.021 | encorafenib 0.054 | [3] -0.001 | [4] 0.236 | filanesib -0.012 | zotarolimus -0.057 | idasanutlin -0.034 | alisertib 0.017 | [5] -0.127 | gefitinib 0 | [6] 0.105 | lapatinib -0.048 | pictilisib -0.011

NDUFV1 (UniProt P49821)
inactive: saracatinib -0.006 | sotrastaurin 0.006 | alvocidib -0.056 | Tubastatin A -0.063 | [1] -0.024 | defactinib -0.005 | rucaparib -0.008 | [2] -0.015 | encorafenib -0.024 | [3] 0.009 | [4] -0.089 | filanesib -0.056 | zotarolimus 0.053 | idasanutlin -0.054 | alisertib -0.039 | [5] 0.013 | gefitinib 0.009 | [6] 0.054 | lapatinib -0.019 | pictilisib -0.017
